Data source: PubChem BioAssay AID652259 (Drosophila RNAi Screening Center, 2013)
The deposit covers about 22,000 reagents; shown is a random part of those with a known target gene and a result. Of all reagents, 233 (1.1%) got an active call. 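Light values are raw, unnormalised plate reads; the ratio scores behind the reporter calls were not deposited.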 Unmarked entries are inactive. A plus sign joins genes that one reagent is predicted to hit. Reagent sequences are not shown. Not given: the amount of reagent, the time to read-out, the dose of the treatment.

Screen: 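Genome-wide hunt for genes that control Wingless pathway activity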 (primary screen)
Cells: Drosophila clone 8 imaginal disc epithelial cells
Knock-down reagent: long dsRNA against Drosophila genes
Treatment: pathway stimulated by co-transfected Wingless expression plasmid
Measured: 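Dual luciferase reads per well after Wingless plasmid stimulation: reporter firefly light and Renilla control light; activity is firefly divided by Renilla, a ratio not deposited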
Scale: firefly reporter light: higher = more Wg reporter light, before normalisation; Renilla control light: higher = more transfected or surviving cells
Call rule: 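a knock-down is a candidate when at least two out of four statistical tests show it departing from its plate mean; one test alone signals a weak candidate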
Meaning of the calls: active = candidate regulator (raises or lowers reporter); inactive = not a candidate

no.	Gene	DRSC id	reporter change call, replicate 1	firefly reporter light, replicate 1	firefly reporter light, replicate 2	Renilla control light, replicate 1	Renilla control light, replicate 2
1	CG5984	DRSC15930		6122		4278	
2	twy (twitchy)	DRSC10562		7165		3213	
3	CG15044	DRSC19620		20934		12336	
4	CG15044	DRSC21385		3.14e5	2.44e5	1.68e5	1.20e5
5	RpS10a (Ribosomal protein S10a)	DRSC14161		2741	8821	1256	2939
6	slp1 (sloppy paired 1)	DRSC00835		7554		4889	
7	pit (pitchoune)	DRSC17025		38133		7257	
8	pit (pitchoune)	DRSC22798		7.66e5	7.50e5	3.12e5	3.96e5
9	SP1029	DRSC16848		7105		2555	
10	LanB1	DRSC03360		7251		4007	
11	alphaTub67C (alpha-Tubulin at 67C)	DRSC11321		9235		2645	
12	Pp1-13C (Protein phosphatase 1 at 13C)	DRSC20269		25921		10020	
13	Cog8 (Component of oligomeric golgi complex 8)	DRSC02961		6730		3869	
14	nAChRalpha2 (nicotinic Acetylcholine Receptor alpha2)	DRSC17009		1828	5410	1003	2048
15	CG16756	DRSC18115		14000		11241	
16	Atac1 (Ada2a-containing complex component 1)	DRSC03155		2836	6410	1292	2501
17	CG12290	DRSC14497		1458	5792	976	2131
18	Ehbp1 (Eps15 homology domain containing protein-binding protein 1)	DRSC06561		14967		4307	
19	frma (fra mauro)	DRSC18297		1314	5341	538	1547
20	ValRS (Valyl-tRNA synthetase)	DRSC06864		7370		2873	
21	trp (transient receptor potential)	DRSC17088		5945		2487	
22	PsGEF (Protostome-specific GEF)	DRSC18596		27223		22787	
23	PsGEF (Protostome-specific GEF)	DRSC18600		14731		14715	
24	PsGEF (Protostome-specific GEF)	DRSC18601		14131		6416	
25	CR42532 (pseudo)	DRSC06713		7776		3210	
26	side-III (sidestep III)	DRSC12155		15819		2982	
27	side-III (sidestep III)	DRSC12263		15653		1755	
28	side-III (sidestep III)	DRSC12264		16882		4296	
29	BaraA1 + BaraA2	DRSC05417		20096		13437	
30	CG4701	DRSC01952		1296	6041	706	2481
31	CG6178	DRSC15984		2133	5921	838	1707
32	CG13409	DRSC14585		35408		6163	
33	CG11095	DRSC19375		1944	4605	556	2043
34	GstD8 (Glutathione S transferase D8)	DRSC16689		12326		1585	
35	HLH54F	DRSC07438		4899		2188	
36	Pgant4 (Polypeptide N-Acetylgalactosaminyltransferase 4)	DRSC00717		3447	7014	1228	2656
37	CG9590	DRSC16506		2409	7961	865	2058
38	Pdp (Pyruvate dehydrogenase phosphatase)	DRSC17825		3152	7655	1076	2114
39	CG1113	DRSC12163		10390		1924	
40	CG1265	DRSC08288		9274		3639	
41	cbc (crowded by cid)	DRSC06957		11029		5177	
42	GMF (Glia maturation factor)	DRSC01928		13904		6276	
43	Fbxl4 (F box and leucine-rich-repeat gene 4)	DRSC19805		2214	5306	976	2788
44	Mp20 (Muscle protein 20)	DRSC07474		6508		2822	
45	snf (sans fille)	DRSC18835		1658	9101	418	2807
46	spag4 (sperm-associated antigen 4)	DRSC02973		4365	7433	785	3413
47	Tsp29Fa (Tetraspanin 29Fa)	DRSC03232		2304	5856	855	2912
48	CG5860	DRSC15896		13392		4312	
49	gbb (glass bottom boat)	DRSC04687		2837	10069	691	2212
50	Pde9 (Phosphodiesterase 9)	DRSC19746		16871		7588	
51	Pde9 (Phosphodiesterase 9)	DRSC19874		14624		8420	
52	Pde9 (Phosphodiesterase 9)	DRSC19875		14635		7832	
53	Pde9 (Phosphodiesterase 9)	DRSC19876		26260		12711	
54	Unr (Upstream of N-ras)	DRSC10761		4588		1875	
55	Unr (Upstream of N-ras)	DRSC22959		7.97e5	8.57e5	4.35e5	1.50e5
56	CG12547	DRSC07759		4698		2296	
57	CG12502	DRSC08281		6403		2384	
58	wbl (windbeutel)	DRSC07718		8476		2353	
59	CG43338	DRSC22055		4.89e5	5.80e5	1.28e5	1.27e5
60	Ebp (Ejaculatory bulb protein)	DRSC04048		15019		4176	
61	tank	DRSC00461		3201	5944	957	2326
62	TfIIEalpha (Transcription factor IIEalpha)	DRSC11303		4357		1810	
63	moi + Tgs1	DRSC16371		13258		2273	
64	APC4 (Anaphase Promoting Complex subunit 4)	DRSC18360		3458	11365	1066	3184
65	CG30338	DRSC05166		15299		8996	
66	Tasp1 (Taspase 1)	DRSC10495		3473		1769	
67	CG14113	DRSC10116		7813		3280	
68	Ccdc56 + mtTFB1	DRSC10809		9683	8.56e5	4310	4.51e5
69	dom (domino)	DRSC04558	Wg reporter activity raised (active)	35590		1608	
70	dom (domino)	DRSC04559	Wg reporter activity raised	6756	8464	576	1468
71	pasi1 (pasiflora 1)	DRSC16299		21064	9.82e5	6167	5.16e5
72	pasi1 (pasiflora 1)	DRSC22385		8.34e5	8.30e5	4.17e5	4.01e5
73	CG42703	DRSC03973		17968		7738	

Limited to “Renilla control light, replicate 1”, for 6 of the entries above:
Unr (Upstream of N-ras) [DRSC22959]: 4.35e5
CG12547 [DRSC07759]: 2296
CG12502 [DRSC08281]: 2384
wbl (windbeutel) [DRSC07718]: 2353
CG43338 [DRSC22055]: 1.28e5
Ebp (Ejaculatory bulb protein) [DRSC04048]: 4176
